Results from publication PMC7239452.
Results are given in words; binding and its absence hold for the method and conditions named. Binding seen in cells or lysates may run through a third protein. Some results given as binding are weak or reduced against the parent protein; the word gives no strength.

Biological target: T1, Sec24D (mouse, Min-6 insulinoma cells) (mouse (endogenous in Min-6)) (UniProt Q6NXL1)
T1 sequence: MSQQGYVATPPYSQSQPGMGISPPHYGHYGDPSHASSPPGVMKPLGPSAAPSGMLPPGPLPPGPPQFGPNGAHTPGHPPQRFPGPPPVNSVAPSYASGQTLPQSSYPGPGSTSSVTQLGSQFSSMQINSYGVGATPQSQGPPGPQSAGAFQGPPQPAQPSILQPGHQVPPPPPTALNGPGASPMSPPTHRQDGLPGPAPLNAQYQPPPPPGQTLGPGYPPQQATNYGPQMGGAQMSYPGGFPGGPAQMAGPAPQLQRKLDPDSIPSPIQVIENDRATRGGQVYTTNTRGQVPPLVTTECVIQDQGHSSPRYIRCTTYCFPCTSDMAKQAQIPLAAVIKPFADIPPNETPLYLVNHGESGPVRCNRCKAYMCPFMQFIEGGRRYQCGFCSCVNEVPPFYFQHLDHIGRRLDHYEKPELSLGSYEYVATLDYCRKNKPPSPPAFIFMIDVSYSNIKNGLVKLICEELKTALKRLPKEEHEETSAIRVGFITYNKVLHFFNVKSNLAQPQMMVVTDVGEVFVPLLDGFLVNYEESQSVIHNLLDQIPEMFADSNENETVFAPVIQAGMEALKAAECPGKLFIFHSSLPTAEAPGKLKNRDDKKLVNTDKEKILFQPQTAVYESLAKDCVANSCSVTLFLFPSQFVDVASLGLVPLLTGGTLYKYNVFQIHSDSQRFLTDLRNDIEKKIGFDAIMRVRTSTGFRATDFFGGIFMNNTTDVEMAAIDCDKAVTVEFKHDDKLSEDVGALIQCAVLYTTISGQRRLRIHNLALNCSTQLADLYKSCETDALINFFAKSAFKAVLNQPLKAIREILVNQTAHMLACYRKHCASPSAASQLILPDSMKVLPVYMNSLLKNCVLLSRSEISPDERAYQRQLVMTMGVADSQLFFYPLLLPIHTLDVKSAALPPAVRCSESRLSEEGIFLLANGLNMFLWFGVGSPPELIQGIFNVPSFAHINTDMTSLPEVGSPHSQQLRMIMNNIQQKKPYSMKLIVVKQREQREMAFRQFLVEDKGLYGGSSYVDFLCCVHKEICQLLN
Assay: co-IP; Min-6 cells lysed under non-denaturing conditions (RIPA without SDS or Thermo lysis buffer); 500 ug lysate protein, 10 ul primary antibody 1 h at room temperature, Protein G PLUS agarose 2 h; precipitate read by SDS-PAGE and immunoblot

ERp29 (ER protein of 29 kDa; mouse, Min-6 insulinoma cells) (from UniProt P57759 35-262)
binding: binds
